Reference: the supplement of paper PMC6078165
The reference is the same well before dosing, and untreated signal decays as well.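 Fibroblast labels name human fibroblasts: mostly primary ones from tissues such as uterus (C12385, HUF), lung (H6013), bone (Hs27A), adrenal (HADF) and skin (WS1), plus mammary HMF and breast cancer-associated Hs343T. The cancer cells are basal-like or mesenchymal-like triple-negative breast cancer lines. The paper calls a changed response a hit when it shifts by more than 3x the replicate standard deviation. The tissue of the other fibroblasts is not given here.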

Tested on: Hs578T
Test: relative JC-1 red fluorescence (viability) vs pre-drug, coculture with fibroblast (fraction); higher = more viable cancer cells
Method: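 JC-1 labelled TNBC cells cocultured 1:1 (1,500 cells each) with CellTrace Violet stained primary or stromal fibroblasts in 384-well plates in FluoroBrite medium, treated with one of 42 anticancer drugs at 0.1, 1, 10 or 100 uM. JC-1 red fluorescence (mitochondrial integrity in cancer cells only) was read by plate reader every 8 h for 72 h. Values are normalised to each well's pre-drug value. The stock of one drug was tenfold lower, so its dose labels may be too high.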

O=C(O)C1(C(=O)O)CCC1.[NH2-].[NH2-].[Pt+2] [Carboplatin]
relative JC-1 red fluorescence
Conditions	8 h	16 h	24 h	32 h	40 h	48 h	56 h	64 h	72 h
0.1 µM	0.915	0.812	0.754	0.7112	0.65	0.6	0.562	0.516	0.491
1 µM	0.887	0.779	0.717	0.6707	0.6049	0.558	0.535	0.492	0.467

relative JC-1 red fluorescence
Conditions	8 h	16 h	24 h	32 h	40 h	48 h	56 h	64 h	72 h
0.1 µM, coculture fibroblast: C12385	0.8367	0.742	0.686	0.585	0.516	0.478	0.45	0.435	0.434
0.1 µM, coculture fibroblast: H6013	0.885	0.804	0.761	0.7362	0.7065	0.69633	0.6775	0.6764	0.6527
0.1 µM, coculture fibroblast: H6019	0.799	0.69	0.697	0.6194	0.598	0.585	0.559	0.544	0.517
0.1 µM, coculture fibroblast: H6076	0.878	0.803	0.769	0.772	0.739	0.759	0.76	0.768	0.782
0.1 µM, coculture fibroblast: H6231	0.908	0.813	0.73837	0.702	0.641	0.612	0.566	0.542	0.526
0.1 µM, coculture fibroblast: HADF	0.92	0.838	0.769	0.696	0.642	0.597	0.556	0.541	0.505
0.1 µM, coculture fibroblast: HCFa	0.868	0.776	0.711	0.667	0.601	0.569	0.536	0.522	0.488
0.1 µM, coculture fibroblast: HCPF	0.912	0.8	0.736	0.709	0.648	0.623	0.599	0.567	0.558
0.1 µM, coculture fibroblast: HHSteC	0.893	0.788	0.724	0.675	0.609	0.574	0.546	0.524	0.491
0.1 µM, coculture fibroblast: HMF	0.844	0.781	0.7328	0.7318	0.689	0.667	0.634	0.62	0.612
0.1 µM, coculture fibroblast: HPFa	0.9075	0.8416	0.744	0.666	0.611	0.569	0.521	0.491	0.447
0.1 µM, coculture fibroblast: HUF	0.849	0.753	0.716	0.612	0.562	0.531	0.501	0.501	0.498
0.1 µM, coculture fibroblast: Hs27A	0.8775	0.82	0.796	0.748	0.687	0.672	0.64	0.628	0.582
0.1 µM, coculture fibroblast: Hs343T	0.87	0.78	0.753	0.7549	0.7069	0.7084	0.683	0.6822	0.6928
0.1 µM, coculture fibroblast: WS1	0.83	0.74	0.681	0.59	0.5427	0.528	0.503	0.509	0.507
1 µM, coculture fibroblast: C12385	0.771	0.701	0.647	0.558	0.494	0.46	0.432	0.428	0.423
1 µM, coculture fibroblast: H6013	0.8385	0.806	0.768	0.741	0.72	0.705	0.685	0.68	0.65
1 µM, coculture fibroblast: H6019	0.792	0.726	0.716	0.627	0.584	0.547	0.508	0.483	0.444
1 µM, coculture fibroblast: H6076	0.882	0.8143	0.7622	0.728	0.677	0.668	0.6566	0.6542	0.651
1 µM, coculture fibroblast: H6231	0.87325	0.778	0.7133	0.6622	0.59	0.558	0.516	0.495	0.484
1 µM, coculture fibroblast: HADF	0.872	0.794	0.728	0.677	0.652	0.641	0.61	0.606	0.587
1 µM, coculture fibroblast: HCFa	0.8362	0.7897	0.728	0.681	0.632	0.606	0.564	0.547	0.502
1 µM, coculture fibroblast: HCPF	0.91	0.825	0.762	0.716	0.653	0.627	0.605	0.565	0.5487
1 µM, coculture fibroblast: HHSteC	0.853	0.797	0.74	0.687	0.636	0.6013	0.5794	0.561	0.521
1 µM, coculture fibroblast: HMF	0.866	0.772	0.697	0.668	0.608	0.575	0.538	0.513	0.5
1 µM, coculture fibroblast: HPFa	0.8891	0.7923	0.736	0.68	0.641	0.601	0.555	0.531	0.485
1 µM, coculture fibroblast: HUF	0.8621	0.7251	0.6833	0.576	0.515	0.479	0.452	0.438	0.432
1 µM, coculture fibroblast: Hs27A	0.8467	0.782	0.719	0.6608	0.592	0.5657	0.5212	0.5101	0.4643
1 µM, coculture fibroblast: Hs343T	0.875	0.775	0.714	0.683	0.611	0.583	0.545	0.527	0.52
1 µM, coculture fibroblast: WS1	0.779	0.685	0.63	0.522	0.454	0.43	0.4	0.388	0.3816
